{
  "source": "paper PMC10631681",
  "about": "“The structural basis of mRNA recognition and binding by yeast pseudouridine synthase PUS1”",
  "key": {"[1]": {"molecular_target": "T1, PUS1 R132A (Saccharomyces cerevisiae) (UniProt Q12211)", "T1 sequence (looked up)": "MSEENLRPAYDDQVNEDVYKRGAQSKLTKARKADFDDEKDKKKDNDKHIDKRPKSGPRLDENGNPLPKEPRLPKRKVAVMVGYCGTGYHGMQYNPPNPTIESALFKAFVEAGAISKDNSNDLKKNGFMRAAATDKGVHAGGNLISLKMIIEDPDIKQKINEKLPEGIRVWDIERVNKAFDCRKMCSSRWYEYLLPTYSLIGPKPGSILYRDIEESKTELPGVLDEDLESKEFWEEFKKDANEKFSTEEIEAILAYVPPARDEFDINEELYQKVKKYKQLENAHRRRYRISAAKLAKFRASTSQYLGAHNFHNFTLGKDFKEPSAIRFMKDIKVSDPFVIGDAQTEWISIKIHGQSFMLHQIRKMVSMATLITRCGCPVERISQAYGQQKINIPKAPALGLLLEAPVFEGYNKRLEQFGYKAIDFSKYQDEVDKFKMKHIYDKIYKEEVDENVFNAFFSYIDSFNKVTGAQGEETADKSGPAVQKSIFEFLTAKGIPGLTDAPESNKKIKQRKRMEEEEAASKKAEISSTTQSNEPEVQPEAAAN", "assay": "EMSA", "details": "100 nM RNA, 100 nM-1 uM protein, no reduction of binding vs wild type; 90 min, SYBR Gold stain; recombinant protein; residues 1-544"}, "[2]": {"molecular_target": "T2, PUS1 R362A (Saccharomyces cerevisiae) (UniProt Q12211)", "T2 sequence (looked up)": "T1 sequence (looked up) with A132R, R362A", "assay": "EMSA", "details": "100 nM RNA, 100 nM-1 uM protein, no reduction of binding vs wild type; 90 min, SYBR Gold stain; recombinant protein; residues 1-544"}},
  "note": "Numbering of substitutions follows the chain as printed. The exact form of at least one protein or probe is not confirmed. At least one verdict was read from the data and is not stated in words by the source. Protein sequences can lack the tags named with them.",
  "data": [
    {"sequence": "AAAUCGGGAUUCCGGAUA [R263 (EMSA)]", "values": [
      {"measurement": "binding result", "setting": "[1]", "result": "binds"},
      {"measurement": "binding result", "setting": "[2]", "result": "binds"}
    ]}
  ]
}
